Measurements reported in paper PMC7859179.
These are yes or no findings as the source states them, for the method shown. In cells and extracts the contact can be indirect. Binding can be weak; no strength is given. Where a sequence is shown, tags or fusion partners need not be part of it.

Target: T1, CiLV-C p29 capsid protein, split-YFP fusion for BiFC (citrus leprosis virus C (CiLV-C), strain CRD) (UniProt Q1KZ58)
T1 sequence: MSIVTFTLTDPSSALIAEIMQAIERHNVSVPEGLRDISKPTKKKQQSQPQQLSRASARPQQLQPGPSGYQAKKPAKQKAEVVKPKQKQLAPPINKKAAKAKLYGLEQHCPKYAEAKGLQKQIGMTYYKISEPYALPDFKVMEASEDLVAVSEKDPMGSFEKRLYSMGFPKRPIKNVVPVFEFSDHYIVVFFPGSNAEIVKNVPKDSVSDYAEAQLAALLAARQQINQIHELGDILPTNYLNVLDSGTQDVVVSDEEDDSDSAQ
Experiment: split reporter; BiFC with NYFP and CYFP fusions transiently co-expressed in N. benthamiana leaves; YFP fluorescence read by confocal microscopy four days post-infiltration

Row | Substance | binding
1 | CiLV-C MPΔ1–227, CYFP fusion for BiFC (domain or fragment) | binds
2 | CiLV-C MPΔ228–297, CYFP fusion for BiFC (domain or fragment) | binds
